Measured values taken from paper PMC9574752.
No constants are given. Whether binding was seen depends on the method and setting. In cells and extracts the contact can be indirect. A yes stands for co-enrichment or nearness to the bait. Other partners may have been found. For some assays here: Sequences can lack the tags named with a protein.

Columns and labels:
[1] = molecular target: myc-BioID2-OTUD6B fusion protein (UniProt Q8N6M0); test: proximity labelling; BioID2: myc-BioID2-EV, myc-BioID2-OTUD6B-IF1 or -IF2 in HEK293T, 50 uM biotin for 16 h, modified RIPA lysis, strep-tactin resin, on-bead digestion, MS
[2] = molecular target: T1, FLAG-OTUD6B isoform 1 (IF1) (UniProt Q8N6M0); test: affinity purification with mass spectrometry; FLAG-OTUD6B or FLAG-EV in 2 x 10^9 HEK293T cells; FLAG M2 beads from whole cell extract (150 mM NaCl, 50 mM Tris-HCl pH 7.5, 0.1% NP-40), elution with 3xFLAG peptide, nanoLC-MS/MS, label-free quantification
T1 sequence: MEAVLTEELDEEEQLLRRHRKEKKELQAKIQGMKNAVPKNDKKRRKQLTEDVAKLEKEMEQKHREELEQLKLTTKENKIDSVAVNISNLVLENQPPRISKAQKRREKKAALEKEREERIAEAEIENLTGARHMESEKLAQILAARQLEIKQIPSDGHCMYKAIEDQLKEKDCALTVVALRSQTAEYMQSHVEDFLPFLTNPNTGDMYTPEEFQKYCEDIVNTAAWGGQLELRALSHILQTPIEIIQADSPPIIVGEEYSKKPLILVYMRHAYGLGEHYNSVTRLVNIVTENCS

B1: LIN28B, endogenous in HEK293T cells (protein, UniProt Q6ZN17 1-250)
chain: MAEGGASKGGGEEPGKLPEPAEEESQVLRGTGHCKWFNVRMGFGFISMINREGSPLDIPVDVFVHQSKLFMEGFRSLKEGEPVEFTFKKSSKGLESIRVTGPGGSPCLGSERRPKGKTLQKRKPKGDRCYNCGGLDHHAKECSLPPQPKKCHYCQSIMHMVANCPHKNVAQPPASSQGRQEAESQPCTSTLPREVGGGHGCTSPPFPQEARAEISERSGRSPQEASSTKSSIAPEEQSKKGPSVQKRKKT
- binding [1]: binds
- binding [2]: binds
